Measurements: the supplement of paper PMC10849652
The list shows a part of the results.

Chains of the proteins cited; added tags and fusions are not shown. Lines headed by an entry give the natural chain unless they say otherwise; changes in a name come on top.
UniProt P05387, whole entry, looked up: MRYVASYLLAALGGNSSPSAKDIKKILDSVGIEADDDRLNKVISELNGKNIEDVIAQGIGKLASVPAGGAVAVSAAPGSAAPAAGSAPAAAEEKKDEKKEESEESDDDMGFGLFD
UniProt Q9BWH6: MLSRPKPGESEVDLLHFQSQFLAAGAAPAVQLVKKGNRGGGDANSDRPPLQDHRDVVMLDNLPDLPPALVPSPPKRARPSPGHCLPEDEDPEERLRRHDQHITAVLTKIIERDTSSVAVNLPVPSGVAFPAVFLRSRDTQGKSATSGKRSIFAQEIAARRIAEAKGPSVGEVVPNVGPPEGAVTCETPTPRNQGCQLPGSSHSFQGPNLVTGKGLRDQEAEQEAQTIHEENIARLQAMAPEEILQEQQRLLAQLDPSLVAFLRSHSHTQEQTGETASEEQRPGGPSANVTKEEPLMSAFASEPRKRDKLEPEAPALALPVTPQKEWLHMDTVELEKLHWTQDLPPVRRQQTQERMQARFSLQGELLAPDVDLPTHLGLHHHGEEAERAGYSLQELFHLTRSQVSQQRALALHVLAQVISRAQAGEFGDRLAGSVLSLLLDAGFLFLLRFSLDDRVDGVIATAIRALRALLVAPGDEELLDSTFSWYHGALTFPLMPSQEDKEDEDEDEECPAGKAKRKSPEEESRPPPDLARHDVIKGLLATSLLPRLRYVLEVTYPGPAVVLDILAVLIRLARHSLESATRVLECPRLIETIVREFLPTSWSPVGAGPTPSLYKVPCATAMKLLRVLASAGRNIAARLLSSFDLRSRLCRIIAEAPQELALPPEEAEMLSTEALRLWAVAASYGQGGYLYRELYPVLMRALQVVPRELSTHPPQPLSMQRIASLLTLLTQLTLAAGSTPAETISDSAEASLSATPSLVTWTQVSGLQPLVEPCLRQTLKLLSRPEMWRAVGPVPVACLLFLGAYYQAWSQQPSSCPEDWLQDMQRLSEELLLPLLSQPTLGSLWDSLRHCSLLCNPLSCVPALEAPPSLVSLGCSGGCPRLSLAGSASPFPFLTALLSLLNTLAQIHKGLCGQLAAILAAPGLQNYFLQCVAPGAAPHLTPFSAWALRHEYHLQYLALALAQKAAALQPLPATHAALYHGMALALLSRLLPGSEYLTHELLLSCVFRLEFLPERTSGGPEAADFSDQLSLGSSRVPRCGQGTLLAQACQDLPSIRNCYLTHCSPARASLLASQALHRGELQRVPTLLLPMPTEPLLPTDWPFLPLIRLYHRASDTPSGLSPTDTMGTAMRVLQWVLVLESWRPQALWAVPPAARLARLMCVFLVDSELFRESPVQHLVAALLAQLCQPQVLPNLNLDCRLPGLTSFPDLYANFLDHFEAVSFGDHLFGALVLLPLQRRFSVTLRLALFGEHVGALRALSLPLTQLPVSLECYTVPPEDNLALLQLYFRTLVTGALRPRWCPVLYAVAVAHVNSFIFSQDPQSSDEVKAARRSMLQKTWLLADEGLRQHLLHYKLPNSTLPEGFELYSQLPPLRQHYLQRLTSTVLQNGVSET
UniProt P04843: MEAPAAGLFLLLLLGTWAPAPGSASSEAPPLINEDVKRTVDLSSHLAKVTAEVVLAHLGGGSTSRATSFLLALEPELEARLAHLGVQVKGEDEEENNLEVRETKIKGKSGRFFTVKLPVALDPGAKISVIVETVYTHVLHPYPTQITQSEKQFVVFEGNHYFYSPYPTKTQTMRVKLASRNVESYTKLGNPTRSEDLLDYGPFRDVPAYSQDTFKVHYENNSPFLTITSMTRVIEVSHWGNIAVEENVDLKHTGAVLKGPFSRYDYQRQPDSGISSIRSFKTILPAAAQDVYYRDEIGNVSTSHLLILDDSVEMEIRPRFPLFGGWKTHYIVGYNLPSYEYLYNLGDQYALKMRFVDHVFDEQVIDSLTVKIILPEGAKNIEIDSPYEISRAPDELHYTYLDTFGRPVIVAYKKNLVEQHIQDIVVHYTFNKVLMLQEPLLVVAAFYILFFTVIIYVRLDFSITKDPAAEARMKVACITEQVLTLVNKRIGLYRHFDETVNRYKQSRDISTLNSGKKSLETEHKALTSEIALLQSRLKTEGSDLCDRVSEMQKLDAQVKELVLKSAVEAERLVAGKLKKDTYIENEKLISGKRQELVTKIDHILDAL
UniProt P15927: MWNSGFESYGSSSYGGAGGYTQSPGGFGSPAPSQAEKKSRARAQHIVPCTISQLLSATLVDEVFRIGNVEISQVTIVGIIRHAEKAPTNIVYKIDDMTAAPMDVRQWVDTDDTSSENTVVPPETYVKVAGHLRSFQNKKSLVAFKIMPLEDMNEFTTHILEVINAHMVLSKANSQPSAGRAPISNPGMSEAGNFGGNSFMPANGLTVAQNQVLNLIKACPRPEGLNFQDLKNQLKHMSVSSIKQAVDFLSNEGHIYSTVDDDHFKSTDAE
UniProt P04844: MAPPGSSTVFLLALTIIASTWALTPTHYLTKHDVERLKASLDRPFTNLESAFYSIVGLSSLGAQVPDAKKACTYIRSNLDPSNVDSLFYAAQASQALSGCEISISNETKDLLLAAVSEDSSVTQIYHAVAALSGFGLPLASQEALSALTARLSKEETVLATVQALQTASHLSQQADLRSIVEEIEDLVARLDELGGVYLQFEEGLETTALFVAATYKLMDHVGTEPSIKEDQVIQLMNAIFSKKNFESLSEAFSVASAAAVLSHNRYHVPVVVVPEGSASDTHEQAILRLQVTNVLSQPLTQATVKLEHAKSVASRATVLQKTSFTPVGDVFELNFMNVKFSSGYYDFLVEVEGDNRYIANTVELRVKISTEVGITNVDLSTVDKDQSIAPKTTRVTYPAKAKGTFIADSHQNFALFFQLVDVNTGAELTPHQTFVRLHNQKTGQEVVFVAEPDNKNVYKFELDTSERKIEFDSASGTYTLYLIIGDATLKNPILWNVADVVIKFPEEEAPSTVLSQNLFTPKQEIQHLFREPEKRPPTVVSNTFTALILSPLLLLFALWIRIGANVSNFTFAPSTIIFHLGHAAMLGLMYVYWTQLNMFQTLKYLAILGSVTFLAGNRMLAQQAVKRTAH
UniProt Q9P2E9: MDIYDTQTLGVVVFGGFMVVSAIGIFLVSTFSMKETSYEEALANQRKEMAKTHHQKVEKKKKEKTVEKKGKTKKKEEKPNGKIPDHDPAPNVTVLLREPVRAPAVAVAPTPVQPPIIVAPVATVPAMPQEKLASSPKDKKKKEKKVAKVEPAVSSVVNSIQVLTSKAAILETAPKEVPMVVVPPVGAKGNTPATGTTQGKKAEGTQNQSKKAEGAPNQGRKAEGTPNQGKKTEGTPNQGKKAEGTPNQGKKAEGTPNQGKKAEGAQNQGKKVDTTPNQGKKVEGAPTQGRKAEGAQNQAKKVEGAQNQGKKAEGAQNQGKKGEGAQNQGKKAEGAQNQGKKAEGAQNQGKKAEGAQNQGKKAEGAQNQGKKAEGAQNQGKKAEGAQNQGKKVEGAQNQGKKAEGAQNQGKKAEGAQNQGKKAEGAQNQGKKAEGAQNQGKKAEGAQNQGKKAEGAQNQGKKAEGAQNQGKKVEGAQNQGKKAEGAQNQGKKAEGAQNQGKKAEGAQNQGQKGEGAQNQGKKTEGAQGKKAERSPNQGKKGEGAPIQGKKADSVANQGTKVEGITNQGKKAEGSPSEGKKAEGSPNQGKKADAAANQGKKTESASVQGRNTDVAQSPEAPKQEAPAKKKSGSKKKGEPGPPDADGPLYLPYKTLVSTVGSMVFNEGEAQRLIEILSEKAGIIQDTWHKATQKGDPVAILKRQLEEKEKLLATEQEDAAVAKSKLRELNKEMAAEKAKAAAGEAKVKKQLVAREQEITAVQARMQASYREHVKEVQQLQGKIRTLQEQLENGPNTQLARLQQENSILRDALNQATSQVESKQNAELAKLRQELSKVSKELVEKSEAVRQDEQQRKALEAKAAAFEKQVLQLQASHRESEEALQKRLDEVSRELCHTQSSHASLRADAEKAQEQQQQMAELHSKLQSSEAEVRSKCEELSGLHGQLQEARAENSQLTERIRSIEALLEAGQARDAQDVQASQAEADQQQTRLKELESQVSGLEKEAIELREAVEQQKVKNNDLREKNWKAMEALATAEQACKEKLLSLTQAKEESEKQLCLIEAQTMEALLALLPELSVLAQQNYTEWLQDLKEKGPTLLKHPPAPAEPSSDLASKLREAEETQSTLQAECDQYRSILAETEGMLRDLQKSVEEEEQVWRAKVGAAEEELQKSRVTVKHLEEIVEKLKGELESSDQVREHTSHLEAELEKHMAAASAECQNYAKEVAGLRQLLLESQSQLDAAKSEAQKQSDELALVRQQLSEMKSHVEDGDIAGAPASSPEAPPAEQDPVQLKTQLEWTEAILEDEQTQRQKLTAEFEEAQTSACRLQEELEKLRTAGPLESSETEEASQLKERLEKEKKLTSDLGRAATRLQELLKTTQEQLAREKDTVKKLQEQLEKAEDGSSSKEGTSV
UniProt Q86WX3: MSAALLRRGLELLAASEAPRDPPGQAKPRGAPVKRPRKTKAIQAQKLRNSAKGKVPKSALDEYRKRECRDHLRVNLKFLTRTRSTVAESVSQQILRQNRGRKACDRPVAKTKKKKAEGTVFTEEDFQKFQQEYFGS
UniProt Q7LG56, whole entry, looked up: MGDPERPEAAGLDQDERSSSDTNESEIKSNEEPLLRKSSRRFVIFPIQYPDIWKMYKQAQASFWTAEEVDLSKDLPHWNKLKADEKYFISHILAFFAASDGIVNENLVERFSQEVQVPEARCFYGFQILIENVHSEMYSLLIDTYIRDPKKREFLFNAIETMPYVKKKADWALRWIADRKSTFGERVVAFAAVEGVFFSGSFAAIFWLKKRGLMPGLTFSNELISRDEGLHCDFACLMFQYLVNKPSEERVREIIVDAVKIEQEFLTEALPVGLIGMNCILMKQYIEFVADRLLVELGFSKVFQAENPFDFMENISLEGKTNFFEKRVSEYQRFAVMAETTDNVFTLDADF
UniProt P10155: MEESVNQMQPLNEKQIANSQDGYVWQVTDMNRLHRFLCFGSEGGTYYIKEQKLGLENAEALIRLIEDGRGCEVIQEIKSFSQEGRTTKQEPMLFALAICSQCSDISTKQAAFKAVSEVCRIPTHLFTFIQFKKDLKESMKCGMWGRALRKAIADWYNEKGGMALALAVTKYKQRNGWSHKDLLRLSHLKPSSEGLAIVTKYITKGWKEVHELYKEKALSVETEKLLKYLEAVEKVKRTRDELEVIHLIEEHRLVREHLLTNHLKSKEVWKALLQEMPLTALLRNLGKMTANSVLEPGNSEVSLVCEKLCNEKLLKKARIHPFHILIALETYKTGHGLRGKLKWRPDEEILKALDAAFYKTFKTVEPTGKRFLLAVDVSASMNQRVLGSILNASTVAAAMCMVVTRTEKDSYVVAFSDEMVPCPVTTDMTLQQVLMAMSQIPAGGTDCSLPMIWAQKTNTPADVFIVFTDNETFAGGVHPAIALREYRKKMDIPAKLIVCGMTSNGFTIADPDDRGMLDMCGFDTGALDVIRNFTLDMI
UniProt Q969K3: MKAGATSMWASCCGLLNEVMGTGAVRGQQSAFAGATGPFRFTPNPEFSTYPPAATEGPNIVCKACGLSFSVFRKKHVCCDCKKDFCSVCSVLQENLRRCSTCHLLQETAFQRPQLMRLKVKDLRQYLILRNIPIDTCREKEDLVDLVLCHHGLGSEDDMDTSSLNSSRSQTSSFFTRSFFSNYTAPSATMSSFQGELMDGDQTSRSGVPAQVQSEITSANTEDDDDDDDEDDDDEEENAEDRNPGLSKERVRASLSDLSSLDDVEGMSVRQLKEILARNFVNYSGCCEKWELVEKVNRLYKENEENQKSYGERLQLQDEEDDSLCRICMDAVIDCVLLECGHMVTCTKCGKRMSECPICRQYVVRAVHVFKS
UniProt P10301: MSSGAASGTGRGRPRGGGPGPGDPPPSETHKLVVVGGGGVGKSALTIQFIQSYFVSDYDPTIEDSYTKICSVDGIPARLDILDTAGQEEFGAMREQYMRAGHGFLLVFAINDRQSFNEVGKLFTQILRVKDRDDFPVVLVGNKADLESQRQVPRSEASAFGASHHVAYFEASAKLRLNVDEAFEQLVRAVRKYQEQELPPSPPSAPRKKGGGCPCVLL
UniProt O43148, whole entry, looked up: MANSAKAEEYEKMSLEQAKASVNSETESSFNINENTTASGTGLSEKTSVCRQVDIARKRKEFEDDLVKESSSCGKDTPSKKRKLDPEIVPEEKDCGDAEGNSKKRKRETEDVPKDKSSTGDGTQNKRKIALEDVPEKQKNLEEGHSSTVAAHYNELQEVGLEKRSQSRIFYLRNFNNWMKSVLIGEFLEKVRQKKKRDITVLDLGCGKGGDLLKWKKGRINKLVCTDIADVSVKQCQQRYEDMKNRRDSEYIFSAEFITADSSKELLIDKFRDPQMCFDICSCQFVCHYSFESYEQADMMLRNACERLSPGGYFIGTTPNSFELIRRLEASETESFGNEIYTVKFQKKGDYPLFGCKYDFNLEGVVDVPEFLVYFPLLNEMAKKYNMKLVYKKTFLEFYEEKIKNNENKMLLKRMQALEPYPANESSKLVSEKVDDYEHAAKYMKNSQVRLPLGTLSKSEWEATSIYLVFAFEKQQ

Legend:
Experiment in all cases: log2 fold change, soluble protein after heating vs DMSO (PISA); higher = thermal stabilisation; K562 cells, 10 uM, 30 min; active = over 0.2 and 3.5 SD of the protein, either way, in both replicates (recomputed)
[1] = compound: CC[C@@H]1C(=O)N(C)c2cnc(Nc3ccc(C(=O)NC4CCN(C)CC4)cc3OC)nc2N1C1CCCC1
How it was run: (§1)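 K562 cells (2×10^6 cells/mL) were treated with 10 μM compound for 30 min, and aliquots were heated for 3 min over 48°C-58°C. Pooled aliquots were extracted in PBS with 0.5% NP-40 at 4°C, and the supernatant after 21,000xg for 90 min was measured by TMTpro 16plex LC-MS/MS with channel sums equalised. Reported thermal stability, relative to control samples and from duplicates, is a log2 fold change.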

volasertib = compound: CC[C@@H]1C(=O)N(C)c2cnc(Nc3ccc(C(=O)N[C@H]4CC[C@H](N5CCN(CC6CC6)CC5)CC4)cc3OC)nc2N1C(C)C [volasertib]
How it was run: as §1

[2] = compound: CC[C@H](C)N1C=C(C2=C(C=C(C=C21)C3=CN=C(C=C3)N4CCNCC4)C(=O)NCC5=C(C=C(NC5=O)C)C)C
How it was run: as §1

epoxomicin = compound: CC[C@H](C)[C@@H](C(=O)N[C@@H]([C@@H](C)O)C(=O)N[C@@H](CC(C)C)C(=O)[C@]1(CO1)C)NC(=O)[C@H]([C@@H](C)CC)N(C)C(=O)C [epoxomicin]
How it was run: as §1

[3] = compound: CCn1c(C(=O)N(C2CC2)C2CC2)cc2c3c(ncn3C)c(Nc3cc(C)n(C)n3)nc21
How it was run: as §1

[4] = compound: CCn1cc(-c2ccnc3[nH]c(-c4cccc(CN(C)C)c4)cc23)c(-c2ccc(NC(=O)N(C)C)cc2)n1
How it was run: as §1

[5] = compound: CN(C)CC(=O)Nc1ccc2[nH]c(=O)c3ccccc3c2c1
How it was run: as §1

rosiglitazone = compound: CN(CCOC1=CC=C(C=C1)C[C@H]2C(=O)NC(=O)S2)C3=CC=CC=N3 (racemic) [rosiglitazone]
How it was run: as §1

[6] = compound: CN1C2=C(C3=C1C(=O)N(N=C3)CC4=CC(=CC=C4)N)SC(=C2)S(=O)C
How it was run: as §1

[7] = compound: CN1CCC(CNc2ccc3ncc(-c4cccc(OC(F)(F)F)c4)n3n2)CC1
How it was run: as §1

Measured: log2 fold change

RPLP2 (UniProt P05387)
inactive: [1] 0.252 | volasertib 0.649 | [2] -0.021 | epoxomicin -0.516 | [3] 0.093 | [4] 0.317 | [5] -0.223 | rosiglitazone -0.209 | [6] 0.303 | [7] 0.38

RPL9 (UniProt P32969)
inactive: [1] 0.256 | volasertib 0.624 | [2] 0.005 | epoxomicin -0.503 | [3] 0.001 | [4] 0.184 | [5] -0.233 | rosiglitazone -0.264 | [6] 0.446 | [7] 0.352

RPAP1 (UniProt Q9BWH6)
inactive: [1] -0.06 | volasertib -0.119 | [2] 0.05 | epoxomicin 0.007 | [3] -0.019 | [4] -0.071 | [5] 0.014 | rosiglitazone 0.007 | [6] -0.054 | [7] -0.127

RPIA (UniProt P49247)
inactive: [1] 0.027 | volasertib 0.076 | [2] -0.028 | epoxomicin 0.027 | [3] -0.005 | [4] 0.012 | [5] 0.001 | rosiglitazone 0.018 | [6] -0.053 | [7] -0.015

RPL27A (UniProt P46776)
inactive: [1] 0.195 | volasertib 0.581 | [2] 0 | epoxomicin -0.502 | [3] 0.01 | [4] 0.396 | [5] -0.184 | rosiglitazone -0.243 | [6] 0.441 | [7] 0.401

RPN1 (UniProt P04843)
inactive: [1] -0.036 | volasertib -0.048 | [2] 0.012 | epoxomicin 0.03 | [3] 0.006 | [4] 0.001 | [5] -0.02 | rosiglitazone 0.022 | [6] -0.053 | [7] -0.03

RPL35A (UniProt P18077)
inactive: [1] 0.254 | volasertib 0.885 | [2] -0.018 | epoxomicin -0.714 | [3] 0.098 | [4] 0.444 | [5] -0.319 | rosiglitazone -0.412 | [6] 0.553 | [7] 0.387

RPA2 isoform 3 (UniProt P15927)
inactive: [1] 0.015 | volasertib -0.01 | [2] -0.006 | epoxomicin 0.004 | [3] 0.011 | [4] 0.021 | [5] -0.003 | rosiglitazone 0.028 | [6] -0.038 | [7] -0.1

Pulled one by one from above, 2 records:
RPIA (UniProt P49247)
inactive: [1] 0.027 | volasertib 0.076 | [2] -0.028 | epoxomicin 0.027 | [3] -0.005 | [4] 0.012 | [5] 0.001 | rosiglitazone 0.018 | [6] -0.053 | [7] -0.015

RPL35A (UniProt P18077)
inactive: [1] 0.254 | volasertib 0.885 | [2] -0.018 | epoxomicin -0.714 | [3] 0.098 | [4] 0.444 | [5] -0.319 | rosiglitazone -0.412 | [6] 0.553 | [7] 0.387

More results:

RPL18 (UniProt Q07020)
inactive: [1] 0.264 | volasertib 0.876 | [2] -0.039 | epoxomicin -0.634 | [3] 0.09 | [4] 0.35 | [5] -0.293 | rosiglitazone -0.393 | [6] 0.608 | [7] 0.466

RPL14 (UniProt P50914)
inactive: [1] 0.275 | volasertib 0.795 | [2] 0.007 | epoxomicin -0.713 | [3] 0.062 | [4] 0.284 | [5] -0.333 | rosiglitazone -0.336 | [6] 0.544 | [7] 0.549

RPN2 (UniProt P04844)
inactive: [1] 0.02 | volasertib -0.035 | [2] 0.016 | epoxomicin 0.004 | [3] 0.009 | [4] 0.005 | [5] 0.005 | rosiglitazone 0.022 | [6] -0.006 | [7] 0.032

RP2 (UniProt O75695)
inactive: [1] 0.079 | volasertib -0.08 | [2] 0.142 | epoxomicin -0.023 | [3] 0.092 | [4] 0.055 | [5] -0.037 | rosiglitazone 0.026 | [6] -0.056 | [7] 0.28

RPL37A (UniProt P61513)
inactive: [1] 0.267 | volasertib 0.718 | [2] -0.009 | epoxomicin -0.493 | [3] -0.009 | [4] 0.168 | [5] -0.282 | rosiglitazone -0.4 | [6] 0.496 | [7] 0.368

RPL22 (UniProt P35268)
inactive: [1] 0.189 | volasertib 0.335 | [2] -0.005 | epoxomicin -0.259 | [3] 0.013 | [4] 0.156 | [5] -0.087 | rosiglitazone -0.045 | [6] 0.167 | [7] 0.164

RRBP1 (UniProt Q9P2E9)
inactive: [1] 0.205 | volasertib 0.435 | [2] -0.032 | epoxomicin -0.441 | [3] 0.039 | [4] 0.37 | [5] -0.184 | rosiglitazone -0.213 | [6] 0.416 | [7] 0.268

RPL35 (UniProt P42766)
inactive: [1] 0.205 | volasertib 0.531 | [2] -0.005 | epoxomicin -0.366 | [3] 0.009 | [4] 0.241 | [5] -0.125 | rosiglitazone -0.16 | [6] 0.348 | [7] 0.242

RPS19BP1 (UniProt Q86WX3)
inactive: [1] 0.148 | volasertib 0.239 | [2] -0.052 | epoxomicin -0.086 | [3] 0.192 | [4] 0.171 | [5] -0.101 | rosiglitazone 0.021 | [6] 0.211 | [7] 0.189

RRM2B isoform 6 (UniProt Q7LG56)
inactive: [1] 0.018 | volasertib -0.049 | [2] -0.026 | epoxomicin -0.057 | [3] 0.025 | [4] -0.045 | [5] -0.058 | rosiglitazone 0.002 | [6] -0.099 | [7] 0

RO60 (UniProt P10155)
inactive: [1] 0.03 | volasertib 0.057 | [2] -0.02 | epoxomicin -0.005 | [3] 0.001 | [4] 0.005 | [5] -0.034 | rosiglitazone -0.017 | [6] -0.061 | [7] -0.037

RPL11 (UniProt P62913)
inactive: [1] 0.193 | volasertib 0.467 | [2] 0.01 | epoxomicin -0.591 | [3] 0.01 | [4] 0.217 | [5] -0.231 | rosiglitazone -0.248 | [6] 0.449 | [7] 0.314

RNF34 isoform 2 (UniProt Q969K3)
inactive: [1] -0.099 | volasertib -0.158 | [2] -0.002 | epoxomicin 0.05 | [3] -0.026 | [4] -0.074 | [5] -0.239 | rosiglitazone 0.049 | [6] -0.114 | [7] -0.232

RPL13A (UniProt P40429)
inactive: [1] 0.31 | volasertib 0.794 | [2] 0.011 | epoxomicin -0.654 | [3] 0.046 | [4] 0.303 | [5] -0.314 | rosiglitazone -0.34 | [6] 0.516 | [7] 0.478

RPS10 (UniProt P46783)
inactive: [1] 0.125 | volasertib 0.332 | [2] 0 | epoxomicin -0.087 | [3] 0.006 | [4] 0.08 | [5] -0.064 | rosiglitazone -0.065 | [6] 0.079 | [7] 0.12

RPL10 (UniProt P27635)
inactive: [1] 0.219 | volasertib 0.63 | [2] 0.013 | epoxomicin -0.317 | [3] 0.006 | [4] 0.174 | [5] -0.192 | rosiglitazone -0.229 | [6] 0.339 | [7] 0.273

RPL36AL (UniProt Q969Q0)
inactive: [1] 0.026 | volasertib 0.45 | [2] -0.016 | epoxomicin -0.137 | [3] -0.01 | [4] 0.208 | [5] -0.24 | rosiglitazone -0.222 | [6] 0.293 | [7] 0.357

RRAS (UniProt P10301)
inactive: [1] 0.114 | volasertib 0.104 | [2] -0.041 | epoxomicin -0.023 | [3] -0.024 | [4] 0.007 | [5] -0.032 | rosiglitazone -0.015 | [6] -0.067 | [7] 0.121

RPS28 (UniProt P62857)
inactive: [1] -0.088 | volasertib 0.212 | [2] -0.048 | epoxomicin -0.019 | [3] 0.02 | [4] 0.131 | [5] -0.121 | rosiglitazone -0.088 | [6] 0.113 | [7] 0.077

RNMT isoform 2 (UniProt O43148)
inactive: [1] 0.117 | volasertib 0.094 | [2] -0.03 | epoxomicin -0.001 | [3] -0.007 | [4] 0.028 | [5] -0.099 | rosiglitazone -0.018 | [6] 0.076 | [7] 0.095

RPS11 (UniProt P62280)
inactive: [1] 0.218 | volasertib 0.576 | [2] 0.031 | epoxomicin -0.337 | [3] 0.042 | [4] 0.152 | [5] -0.156 | rosiglitazone -0.113 | [6] 0.278 | [7] 0.207

RPL39P5 (UniProt Q59GN2)
inactive: [1] 0.173 | volasertib 0.389 | [2] -0.042 | epoxomicin -0.229 | [3] 0.009 | [4] 0.18 | [5] -0.168 | rosiglitazone -0.185 | [6] 0.352 | [7] 0.281
